These are yes or no findings as the source states them, for the method shown. For some of these results: Binding seen in cells or lysates may run through a third protein. For some of these results: Binding calls can cover weak binding; strength is not graded here. For some of these results: Sequences can lack the tags named with a protein.
These substances were tested against T1, GST-AIP1 (full-length GST::AIP1) (Arabidopsis thaliana) (UniProt Q8H0V4) (assay: pull-down; semi-in vivo pulldown: bacterially expressed recombinant GST-AIP1 with protein lysates of Arabidopsis 10-day-old plants; immunoblot with anti-ABAP1 or antibodies against histones; only the target purified).
T1 sequence: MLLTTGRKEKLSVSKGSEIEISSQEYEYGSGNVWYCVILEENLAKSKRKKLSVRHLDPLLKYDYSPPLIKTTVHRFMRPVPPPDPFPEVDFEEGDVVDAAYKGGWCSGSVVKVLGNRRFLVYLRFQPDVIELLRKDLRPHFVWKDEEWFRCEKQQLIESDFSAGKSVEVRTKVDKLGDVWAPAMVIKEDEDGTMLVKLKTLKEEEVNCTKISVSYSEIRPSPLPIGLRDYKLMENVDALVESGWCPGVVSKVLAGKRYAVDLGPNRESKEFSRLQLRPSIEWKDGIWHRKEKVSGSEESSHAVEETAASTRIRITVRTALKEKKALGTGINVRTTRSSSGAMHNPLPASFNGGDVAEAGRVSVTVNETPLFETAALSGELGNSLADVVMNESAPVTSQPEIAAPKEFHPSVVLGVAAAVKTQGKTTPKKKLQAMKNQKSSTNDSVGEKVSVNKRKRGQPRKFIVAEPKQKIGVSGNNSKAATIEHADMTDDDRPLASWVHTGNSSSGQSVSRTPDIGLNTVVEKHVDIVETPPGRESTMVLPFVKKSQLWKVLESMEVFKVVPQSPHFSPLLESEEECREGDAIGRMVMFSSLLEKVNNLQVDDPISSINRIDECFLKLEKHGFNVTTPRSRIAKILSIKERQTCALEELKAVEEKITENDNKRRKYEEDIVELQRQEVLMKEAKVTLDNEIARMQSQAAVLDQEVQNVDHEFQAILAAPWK

| binding | Substance |
| --- | --- |
| binds | non-modified histone H1 (endogenous, Arabidopsis plantlets) |
| binds | non-modified histone H2B (endogenous, Arabidopsis plantlets) |

Each substance was assayed against T2, C-terminal portion of AIP1 containing the DUF724 domain (Arabidopsis thaliana) (UniProt Q8H0V4) (assay: two-hybrid; S. cerevisiae PJ694 co-transformed; selection on -leu/-trp/-his or -leu/-trp/-his/-ade, 3 days at 30 °C; C-terminal portion of AIP1 (DUF724) fused with GAL4 AD against GAL4 DBD fusions (Additional File 4); Additional File 10 calls the AIP1 portion the bait).
T2 sequence: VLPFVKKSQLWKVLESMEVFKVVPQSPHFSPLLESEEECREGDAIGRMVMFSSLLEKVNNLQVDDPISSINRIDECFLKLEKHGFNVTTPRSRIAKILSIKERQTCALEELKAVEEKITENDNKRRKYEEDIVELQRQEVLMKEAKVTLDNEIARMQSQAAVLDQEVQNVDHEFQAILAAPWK

| binding | Substance |
| --- | --- |
| no binding | DBB |
| no binding | DRB4 |
| no binding | HBO1 |
| no binding | HDAC1 |
| no binding | PP2a |

More lines, now with the values behind:

| Substance | binding |
| --- | --- |
| CDC6 | no binding |
| HDAC2 | no binding |
| SNF2/RAD54 | no binding |

Source: PMC4634149
